# Measurements from article PMC9788671.
# Protein sequences, listed by entry. Tags and fused reporters are not part of them.
# UniProt Q9NZV8: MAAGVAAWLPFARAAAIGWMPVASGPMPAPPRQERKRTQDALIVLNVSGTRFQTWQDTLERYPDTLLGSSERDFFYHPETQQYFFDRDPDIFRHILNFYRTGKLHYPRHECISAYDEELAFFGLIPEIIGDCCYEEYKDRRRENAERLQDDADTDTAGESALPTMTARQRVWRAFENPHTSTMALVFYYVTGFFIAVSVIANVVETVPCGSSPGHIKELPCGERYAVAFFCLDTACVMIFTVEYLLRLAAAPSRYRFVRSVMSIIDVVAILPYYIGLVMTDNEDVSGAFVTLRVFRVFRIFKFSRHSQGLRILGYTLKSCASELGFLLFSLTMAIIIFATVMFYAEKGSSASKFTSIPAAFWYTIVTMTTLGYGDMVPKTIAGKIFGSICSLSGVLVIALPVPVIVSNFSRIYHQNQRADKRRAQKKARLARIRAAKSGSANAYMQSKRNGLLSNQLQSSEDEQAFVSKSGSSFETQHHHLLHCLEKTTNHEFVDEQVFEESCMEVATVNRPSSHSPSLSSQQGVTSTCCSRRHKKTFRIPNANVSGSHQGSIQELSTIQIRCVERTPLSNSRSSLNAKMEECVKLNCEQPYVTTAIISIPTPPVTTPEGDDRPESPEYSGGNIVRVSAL
# No constants are given. Whether binding was seen depends on the method and setting. Binding seen in cells or lysates may run through a third protein. A yes stands for co-enrichment or nearness to the bait. Other partners may have been found.
# What was measured:
# TAP-Kv4.2 (human) [1] = target: TAP-Kv4.2 (human) (UniProt Q9NZV8); assay: affinity purification with mass spectrometry; TAP-Kv4.2 expressed by lentivirus in rat hippocampal neurons, harvested at DIV14; weak lysis buffer of the kit (0.1% NP-40); streptavidin resin, then calmodulin resin; gel cut into high and low molecular weight fragments; no MS of the control sample
# TAP-Kv4.2 (human) [2] = target: TAP-Kv4.2 (human) (UniProt Q9NZV8); assay: affinity purification with mass spectrometry; TAP-Kv4.2 expressed by lentivirus in rat hippocampal neurons, harvested at DIV14; strong lysis buffer (1% Triton X-100, 0.5% deoxycholate in PBS, pH 7.4); streptavidin resin, then calmodulin resin; gel cut into high and low molecular weight fragments; no MS of the control sample
binder,measurement,setting,value
"KChIP3 (protein, UniProt Q9JM47 1-256) MQRTKEAMKASDGSLLGDPGRIPLSKREGIKWQRPRFTRQALMRCCLIKWILSSAAPQGSDSSDSELELSTVRHQPEGLDQLQAQTKFTKKELQSLYRGFKNECPTGLVDEDTFKLIYSQFFPQGDATTYAHFLFNAFDADGNGAIHFEDFVVGLSILLRGTVHEKLKWAFNLYDINKDGYITKEEMLAIMKSIYDMMGRHTYPILREDAPLEHVERFFQKMDRNQDGVVTIDEFLETCQKDENIMSSMQLFENVI",binding,TAP-Kv4.2 (human) [1],binds
same,binding,TAP-Kv4.2 (human) [2],binds
"Phb (protein, UniProt P67779 1-272) MAAKVFESIGKFGLALAVAGGVVNSALYNVDAGHRAVIFDRFRGVQDIVVGEGTHFLIPWVQKPIIFDCRSRPRNVPVITGSKDLQNVNITLRILFRPVASQLPRIYTSIGEDYDERVLPSITTEILKSVVARFDAGELITQRELVSRQVSDDLTERAATFGLILDDVSLTHLTFGKEFTEAVEAKQVAQQEAERARFVVEKAEQQKKAAIISAEGDSKAAELIANSLATAGDGLIELRKLEAAEDIAYQLSRSRNITYLPAGQSVLLQLPQ",binding,TAP-Kv4.2 (human) [1],binds
same,binding,TAP-Kv4.2 (human) [2],binds
"Atp5o (protein, UniProt Q06647 24-213) FSKLVRPPVQVYGIEGRYATALYSAASKQKRLDQVEKELLRVGQLLKDPKVSLAVLNPYIKRSIKVKSLKDITTKEKFSPLTANLMNLLAENGRLGNTQGVISAFSTIMSVHRGEVPCTVTTAFPLDEAVLSELKTVLNSFLSKGQILNLEVKTDPSIMGGMIVRIGEKYVDMSAKSKIQKLSKAMRDLL",binding,TAP-Kv4.2 (human) [1],binds
same,binding,TAP-Kv4.2 (human) [2],binds
"Stmn2 (protein, UniProt P21818 1-179) MAKTAMAYKEKMKELSMLSLICSCFYPEPRNINIYTYDDMEVKQINKRASGQAFELILKPPSPISEAPRTLASPKKKDLSLEEIQKKLEAAEGRRKSQEAQVLKQLAEKREHEREVLQKALEENNNFSKMAEEKLILKMEQIKENREANLAAIIERLQEKERHAAEVRRNKELQVELSG",binding,TAP-Kv4.2 (human) [1],binds
same,binding,TAP-Kv4.2 (human) [2],binds
"KChIP2 (protein, UniProt Q9JM59 1-270) MRGQGRKESLSESRDLDGSYDQLTGHPPGPSKKALKQRFLKLLPCCGPQALPSVSETLAAPASLRPHRPRPLDPDSVEDEFELSTVCHRPEGLEQLQEQTKFTRRELQVLYRGFKNECPSGIVNEENFKQIYSQFFPQGDSSNYATFLFNAFDTNHDGSVSFEDFVAGLSVILRGTIDDRLSWAFNLYDLNKDGCITKEEMLDIMKSIYDMMGKYTYPALREEAPREHVESFFQKMDRNKDGVVTIEEFIESCQQDENIMRSMQLFDNVI",binding,TAP-Kv4.2 (human) [1],binds
same,binding,TAP-Kv4.2 (human) [2],binds
"Hsd17b12 (protein, UniProt Q6P7R8 1-312) MERALPAAGFLYWVGASTIAYLTLRASYSLFRAFQVWCVGNQAFVGPRLGEWAVVTGGTDGIGKSYAEELAKRGMKIVLISRSQDKLKEVSNNIKEKFNVETRTIAVDFSLDDIYDKIKTGLSGLEIGVLVNNVGMSYEYPEYFLEIPDLDNTIKKLININVLSICKVTRLVLPGMVERSKGVILNISSASGMLPVPLLTVYSATKAFVDFFSQCLHEEYKSKGIFVQSVLPFFVATKLAKIRKPTLDKPSAETFVKSAIKTVGLQTRTTGYVIHAIMGSINSILPRWIYFKTIMGFNKSLRNRYLKKTKKN",binding,TAP-Kv4.2 (human) [1],binds
same,binding,TAP-Kv4.2 (human) [2],binds
"Bdh1 (protein, UniProt P29147 47-343) TSQADAASGKAVLVTGCDSGFGFSLAKHLHSKGFLVFAGCLLKDKGDAGVRELDSLKSDRLRTIQLNVCNSEEVEKAVETVRSGLKDPEKGMWGLVNNAGISTFGEVEFTSMETYKEVAEVNLWGTVRTTKSFLPLLRRAKGRVVNISSMLGRMANPARSPYCITKFGVEAFSDCLRYEMHPLGVKVSVVEPGNFIAATSLYSPERIQAIAKKMWDELPEVVRKDYGKKYFDEKIAKMETYCNSGSTDTSSVINAVTHALTAATPYTRYHPMDYYWWLRMQVMTHFPGAISDKIYIH",binding,TAP-Kv4.2 (human) [1],binds
same,binding,TAP-Kv4.2 (human) [2],binds
"Kv4.3 (protein, UniProt Q62897 1-655) MAAGVAAWLPFARAAAIGWMPVANCPMPLAPADKNKRQDELIVLNVSGRRFQTWRTTLERYPDTLLGSTEKEFFFNEDTKEYFFDRDPEVFRCVLNFYRTGKLHYPRYECISAYDDELAFYGILPEIIGDCCYEEYKDRKRENAERLMDDNESENNQESMPSLSFRQTMWRAFENPHTSTLALVFYYVTGFFIAVSVITNVVETVPCGTVPGSKELPCGERYSVAFFCLDTACVMIFTVEYLLRLFAAPSRYRFIRSVMSIIDVVAIMPYYIGLVMTNNEDVSGAFVTLRVFRVFRIFKFSRHSQGLRILGYTLKSCASELGFLLFSLTMAIIIFATVMFYAEKGSSASKFTSIPASFWYTIVTMTTLGYGDMVPKTIAGKIFGSICSLSGVLVIALPVPVIVSNFSRIYHQNQRADKRRAQKKARLARIRVAKTGSSNAYLHSKRNGLLNEALELTGTPEEEHMGKTTSLIESQHHHLLHCLEKTTGLSYLVDDPLLSVRTSTIKNHEFIDEQMFEQNCMESSMQNYPSTRSPSLSSHSGLTTTCCSRRSKKTTHLPNSNLPATRLRSMQELSTIHIQGSEQPSLTTSRSSLNLKADDGLRPNCKTSQITTAIISIPTPPALTPEGESRPPPASPGPNTNIPSITSNVVKVSVL",binding,TAP-Kv4.2 (human) [1],binds
same,binding,TAP-Kv4.2 (human) [2],binds
"Slc25a5 (protein, UniProt Q09073 1-298) MTDAAVSFAKDFLAGGVAAAISKTAVAPIERVKLLLQVQHASKQITADKQYKGIIDCVVRIPKEQGVLSFWRGNLANVIRYFPTQALNFAFKDKYKQIFLGGVDKRTQFWRYFAGNLASGGAAGATSLCFVYPLDFARTRLAADVGKAGAEREFKGLGDCLVKIYKSDGIKGLYQGFNVSVQGIIIYRAAYFGIYDTAKGMLPDPKNTHIFISWMIAQSVTAVAGLTSYPFDTVRRRMMMQSGRKGTDIMYTGTLDCWRKIARDEGGKAFFKGAWSNVLRGMGGAFVLVLYDEIKKYT",binding,TAP-Kv4.2 (human) [1],binds
same,binding,TAP-Kv4.2 (human) [2],binds
"Stmn3 (protein, UniProt Q9JHU6 1-180) MASTVSAYKEKMKELSVLSLICSCFYSQPHPNTIYQYGDMEVKQLDKRASGQSFEVILKSPSDLSPESPVLSSPPKRKDASLEELQKRLEAAEERRKTQEAQVLKQLAERREHEREVLHKALEENNNFSPLAEEKLNYKMELSKEIREAHLAALRERLREKELHAAEVRRNKEQREEMSG",binding,TAP-Kv4.2 (human) [1],binds
same,binding,TAP-Kv4.2 (human) [2],binds
"Kv4.1 (protein, UniProt D3ZYK3 1-650) MAAGVATWLPFARAAAVGWLPLAQQPLPPAPEVKASRGDEVLVVNVSGRRFETWKNTLDRYPDTLLGSSEKEFFYDAESGEYFFDRDPDMFRHVLNFYRTGRLHCPRQECIQAFDEELAFYGLVPELVGDCCLEEYRDRKKENAERLAEDEEAEQAGEGPALPAGSSLRQRLWRAFENPHTSTAALVFYYVTGFFIAVSVIANVVETIPCRGPARWPTKEQPCGDRFPTAFFCMDTACVLIFTGEYLLRLFAAPSRCRFLRSVMSLIDVVAILPYYIGLFVPKNDDVSGAFVTLRVFRVFRIFKFSRHSQGLRILGYTLKSCASELGFLLFSLTMAIIIFATVMFYAEKGTSKTNFTSIPAAFWYTIVTMTTLGYGDMVPSTIAGKIFGSICSLSGVLVIALPVPVIVSNFSRIYHQNQRADKRRAQQKVRLARIRLAKSGTTNAFLQYKQNGGLEDSGSGEGQMLCVRSRSAFEQQHHHLLHCLEKTTCHEFTDELTFSEALGAVSLGGRTSRSTSVSSQPMGPGSLFSSCCSRRGERRAIRLANSTASVSRGSMQELDTLAGLRRSPAPQSRSSLNAKPHDSLDLNCESRDFVAAIISIPTPPANTPDESQPSSPGGGGSGGMANTTLRNSSLATPCLLPETVKISSL",binding,TAP-Kv4.2 (human) [1],binds
same,binding,TAP-Kv4.2 (human) [2],binds
